No constants are given. Whether binding was seen depends on the method and setting. In cells and extracts the contact can be indirect. Some binding calls cover weakened binding; strength is not graded here.
Target: T1, CD81 (human (endogenous in NCI-H460)) (UniProt P60033)
T1 sequence: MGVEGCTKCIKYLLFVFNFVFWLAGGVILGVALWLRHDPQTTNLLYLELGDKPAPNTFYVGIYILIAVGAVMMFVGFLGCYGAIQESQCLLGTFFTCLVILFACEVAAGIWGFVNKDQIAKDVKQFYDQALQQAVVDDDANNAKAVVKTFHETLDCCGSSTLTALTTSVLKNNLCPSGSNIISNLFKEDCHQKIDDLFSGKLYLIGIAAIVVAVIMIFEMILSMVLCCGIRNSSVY
Assay: co-IP; NCI-H460 cells lysed under non-denaturing conditions (1% Triton X-100, 1 h at 4°C); immunoprecipitation with anti-CD9 or anti-CD81 and protein G-Sepharose; blot with 229T mAb

binding: binds
B1: partner 1 of CD9 (CD9P-1) (protein, UniProt Q9P2B2 26-879)
chain: VPTATLVRVVGTELVIPCNVSDYDGPSEQNFDWSFSSLGSSFVELASTWEVGFPAQLYQERLQRGEILLRRTANDAVELHIKNVQPSDQGHYKCSTPSTDATVQGNYEDTVQVKVLADSLHVGPSARPPPSLSLREGEPFELRCTAASASPLHTHLALLWEVHRGPARRSVLALTHEGRFHPGLGYEQRYHSGDVRLDTVGSDAYRLSVSRALSADQGSYRCIVSEWIAEQGNWQEIQEKAVEVATVVIQPSVLRAAVPKNVSVAEGKELDLTCNITTDRADDVRPEVTWSFSRMPDSTLPGSRVLARLDRDSLVHSSPHVALSHVDARSYHLLVRDVSKENSGYYYCHVSLWAPGHNRSWHKVAEAVSSPAGVGVTWLEPDYQVYLNASKVPGFADDPTELACRVVDTKSGEANVRFTVSWYYRMNRRSDNVVTSELLAVMDGDWTLKYGERSKQRAQDGDFIFSKEHTDTFNFRIQRTTEEDRGNYYCVVSAWTKQRNNSWVKSKDVFSKPVNIFWALEDSVLVVKARQPKPFFAAGNTFEMTCKVSSKNIKSPRYSVLIMAEKPVGDLSSPNETKYIISLDQDSVVKLENWTDASRVDGVVLEKVQEDEFRYRMYQTQVSDAGLYRCMVTAWSPVRGSLWREAATSLSNPIEIDFQTSGPIFNASVHSDTPSVIRGDLIKLFCIITVEGAALDPDDMAFDVSWFAVHSFGLDKAPVLLSSLDRKGIVTTSRRDWKSDLSLERVSVLEFLLQVHGSEDQDFGNYYCSVTPWVKSPTGSWQKEAEIHSKPVFITVKMDVLNAFKYPLLIGVGLSTVIGLLSCLIGYCSSHWCCKKEVQETRRERRRLMSMEMD
